Record: PubChem BioAssay AID652243 (Drosophila RNAi Screening Center, 2013)
The screen tested about 24,000 reagents; this is an unselected part of those with a known target gene and a result. Over the whole deposit, 246 (1%) are marked active. 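Plates not normalised; calls are printed but the firefly/Renilla ratio behind them is not deposited; fold cut for lowering reported inconsistently.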 The raw values are shown without normalisation. The numbers tell different reagents against one gene apart. A plus sign joins genes that one reagent is predicted to hit. Not given: the amount of reagent.

- Screen: 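Fly regulators of androgen-dependent reporter output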 (primary screen)
- System: Drosophila S2R+ cells
- Knock-down reagent: long dsRNA against Drosophila genes
- Time to read-out: 72 h (48 h, then 24 h hormone)
- Conditions: synthetic androgen R1881 at 10 nM for 24 h
- Measured: 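Firefly light from an androgen-responsive reporter and Renilla control light per well, raw and unnormalised, for each of two replicates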
- Direction: firefly reporter light: higher = more light from androgen-responsive reporter; Renilla control light: higher = more constitutive control signal (cell number, transfection)
- Rule for the call: 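Hit when the log firefly-to-Renilla ratio dropped or increased by a fixed fold versus the mean of GFP or LacZ controls across duplicate plates; lowering cut given as 1.5 and as 3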
- Meaning of the calls: active = hit: reporter lowered or raised; inactive = no hit

For CG31493, the values are firefly reporter light, replicate 1 = 78661; firefly reporter light, replicate 2 = 1.15e5; Renilla control light, replicate 1 = 4.74e5; Renilla control light, replicate 2 = 5.51e5; inactive.
With knock-down of Gpdh2 the results were firefly reporter light, replicate 1 = 4.15e5; firefly reporter light, replicate 2 = 3.84e5; Renilla control light, replicate 1 = 3.02e6; Renilla control light, replicate 2 = 2.85e6; inactive.
With knock-down of CG33964 + CG13175 #1 the results were firefly reporter light, replicate 1 = 3.47e5; firefly reporter light, replicate 2 = 2.39e5; Renilla control light, replicate 1 = 2.40e6; Renilla control light, replicate 2 = 2.17e6; inactive.
CG33964 + CG13175 #2 gave firefly reporter light, replicate 1 = 2.21e5; firefly reporter light, replicate 2 = 1.57e5; Renilla control light, replicate 1 = 1.66e6; Renilla control light, replicate 2 = 1.57e6; inactive.
After knock-down of CG33964 + CG13175 #3, the screen gave firefly reporter light, replicate 1 = 2.10e5; firefly reporter light, replicate 2 = 1.78e5; Renilla control light, replicate 1 = 1.14e6; Renilla control light, replicate 2 = 1.05e6; inactive.
CG17999 showed firefly reporter light, replicate 1 = 9.01e5; firefly reporter light, replicate 2 = 8.68e5; Renilla control light, replicate 1 = 1.81e6; Renilla control light, replicate 2 = 2.16e6; inactive.
lin-52 showed firefly reporter light, replicate 1 = 2.95e5; firefly reporter light, replicate 2 = 3.42e5; Renilla control light, replicate 1 = 4.25e6; Renilla control light, replicate 2 = 4.35e6; inactive.
Against CG7231, the entry reads firefly reporter light, replicate 1 = 1.88e5; firefly reporter light, replicate 2 = 1.50e5; Renilla control light, replicate 1 = 1.64e6; Renilla control light, replicate 2 = 1.48e6; inactive.
For cpx, the values are firefly reporter light, replicate 1 = 1.55e5; firefly reporter light, replicate 2 = 1.55e5; Renilla control light, replicate 1 = 3.75e5; Renilla control light, replicate 2 = 3.39e5; inactive.
Silencing of t-cup #1 came out at: firefly reporter light, replicate 1 = 1.99e5; firefly reporter light, replicate 2 = 1.67e5; Renilla control light, replicate 1 = 2.87e5; Renilla control light, replicate 2 = 2.18e5; inactive.
For t-cup #2 the deposit lists firefly reporter light, replicate 1 = 2.52e5; firefly reporter light, replicate 2 = 3.23e5; Renilla control light, replicate 1 = 5.17e5; Renilla control light, replicate 2 = 8.71e5; inactive.
Knock-down of Idgf6 #1 came out at: firefly reporter light, replicate 1 = 8.56e5; firefly reporter light, replicate 2 = 7.99e5; Renilla control light, replicate 1 = 1.52e6; Renilla control light, replicate 2 = 1.41e6; inactive.
Idgf6 #2 scored firefly reporter light, replicate 1 = 1.01e6; firefly reporter light, replicate 2 = 6.33e5; Renilla control light, replicate 1 = 7.23e5; Renilla control light, replicate 2 = 4.64e5; inactive.
Against Eig71Ee the deposit lists firefly reporter light, replicate 1 = 2.45e5; firefly reporter light, replicate 2 = 2.53e5; Renilla control light, replicate 1 = 2.44e6; Renilla control light, replicate 2 = 2.68e6; inactive.
CG17105 #1 scored firefly reporter light, replicate 1 = 2.36e5; firefly reporter light, replicate 2 = 2.18e5; Renilla control light, replicate 1 = 1.34e6; Renilla control light, replicate 2 = 1.12e6; inactive.
Depletion of CG17105 #2 resulted in: firefly reporter light, replicate 1 = 3.40e5; firefly reporter light, replicate 2 = 3.45e5; Renilla control light, replicate 1 = 7.34e5; Renilla control light, replicate 2 = 7.04e5; inactive.

In a second layout: 4 of the entries above.
{"predicted target": "CG33964 + CG13175", "dsRNA no.": 2, "firefly reporter light, replicate 1": 2.21e5, "firefly reporter light, replicate 2": 1.57e5, "Renilla control light, replicate 1": 1.66e6, "Renilla control light, replicate 2": 1.57e6, "activity call": "inactive"}
{"predicted target": "CG33964 + CG13175", "dsRNA no.": 3, "firefly reporter light, replicate 1": 2.10e5, "firefly reporter light, replicate 2": 1.78e5, "Renilla control light, replicate 1": 1.14e6, "Renilla control light, replicate 2": 1.05e6, "activity call": "inactive"}
{"predicted target": "CG17999", "dsRNA no.": 1, "firefly reporter light, replicate 1": 9.01e5, "firefly reporter light, replicate 2": 8.68e5, "Renilla control light, replicate 1": 1.81e6, "Renilla control light, replicate 2": 2.16e6, "activity call": "inactive"}
{"predicted target": "lin-52", "dsRNA no.": 1, "firefly reporter light, replicate 1": 2.95e5, "firefly reporter light, replicate 2": 3.42e5, "Renilla control light, replicate 1": 4.25e6, "Renilla control light, replicate 2": 4.35e6, "activity call": "inactive"}

Additional results:
For CG10163, the values are firefly reporter light, replicate 1 = 83849; firefly reporter light, replicate 2 = 1.61e5; Renilla control light, replicate 1 = 1.03e6; Renilla control light, replicate 2 = 1.35e6; inactive.
CG40198 gave firefly reporter light, replicate 1 = 4.78e5; firefly reporter light, replicate 2 = 5.30e5; Renilla control light, replicate 1 = 5.78e5; Renilla control light, replicate 2 = 3.87e5; inactive.
Hap40 #1 gave firefly reporter light, replicate 1 = 76442; firefly reporter light, replicate 2 = 40102; Renilla control light, replicate 1 = 5.36e5; Renilla control light, replicate 2 = 5.66e5; inactive.
Hap40 #2 gave firefly reporter light, replicate 1 = 2.53e5; firefly reporter light, replicate 2 = 3.22e5; Renilla control light, replicate 1 = 6.75e5; Renilla control light, replicate 2 = 6.43e5; inactive.
Against kkv, the values are firefly reporter light, replicate 1 = 45390; firefly reporter light, replicate 2 = 56818; Renilla control light, replicate 1 = 4.11e5; Renilla control light, replicate 2 = 4.15e5; inactive.
Knock-down of CG11664 came out at: firefly reporter light, replicate 1 = 2.93e5; firefly reporter light, replicate 2 = 3.34e5; Renilla control light, replicate 1 = 4.43e6; Renilla control light, replicate 2 = 3.77e6; inactive.
Depletion of Or65b resulted in: firefly reporter light, replicate 1 = 1.17e5; firefly reporter light, replicate 2 = 1.45e5; Renilla control light, replicate 1 = 3.85e5; Renilla control light, replicate 2 = 4.02e5; inactive.
With knock-down of Hibch #1, the screen gave firefly reporter light, replicate 1 = 24131; firefly reporter light, replicate 2 = 49490; Renilla control light, replicate 1 = 3.60e5; Renilla control light, replicate 2 = 3.92e5; inactive.
Depletion of Hibch #2 resulted in: firefly reporter light, replicate 1 = 3.19e5; firefly reporter light, replicate 2 = 2.68e5; Renilla control light, replicate 1 = 2.18e5; Renilla control light, replicate 2 = 2.67e5; inactive.
After knock-down of Smox, the record shows firefly reporter light, replicate 1 = 3.87e5; firefly reporter light, replicate 2 = 2.07e5; Renilla control light, replicate 1 = 1.04e6; Renilla control light, replicate 2 = 4.47e5; inactive.
Silencing of Sys1 gave: firefly reporter light, replicate 1 = 1.46e5; firefly reporter light, replicate 2 = 99739; Renilla control light, replicate 1 = 1.94e6; Renilla control light, replicate 2 = 1.39e6; inactive.
